Reference: publication PMC11470877
No constants are given. Whether binding was seen depends on the method and setting. Binding seen in cells or lysates may run through a third protein. Where a sequence is shown, tags or fusion partners need not be part of it.

Amino acid sequences for entries named in this document (tags omitted).
UniProt O54851: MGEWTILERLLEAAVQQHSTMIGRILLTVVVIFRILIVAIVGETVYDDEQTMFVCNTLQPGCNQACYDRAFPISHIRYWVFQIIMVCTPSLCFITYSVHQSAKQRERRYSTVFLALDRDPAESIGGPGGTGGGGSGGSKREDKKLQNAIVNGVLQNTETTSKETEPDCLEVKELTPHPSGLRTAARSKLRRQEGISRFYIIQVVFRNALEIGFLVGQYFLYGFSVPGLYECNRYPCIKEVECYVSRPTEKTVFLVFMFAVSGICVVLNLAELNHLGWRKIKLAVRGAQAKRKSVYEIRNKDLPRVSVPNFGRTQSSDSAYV

Molecular target: T1, GFP-tagged Sec24C (UniProt P53992)
T1 sequence: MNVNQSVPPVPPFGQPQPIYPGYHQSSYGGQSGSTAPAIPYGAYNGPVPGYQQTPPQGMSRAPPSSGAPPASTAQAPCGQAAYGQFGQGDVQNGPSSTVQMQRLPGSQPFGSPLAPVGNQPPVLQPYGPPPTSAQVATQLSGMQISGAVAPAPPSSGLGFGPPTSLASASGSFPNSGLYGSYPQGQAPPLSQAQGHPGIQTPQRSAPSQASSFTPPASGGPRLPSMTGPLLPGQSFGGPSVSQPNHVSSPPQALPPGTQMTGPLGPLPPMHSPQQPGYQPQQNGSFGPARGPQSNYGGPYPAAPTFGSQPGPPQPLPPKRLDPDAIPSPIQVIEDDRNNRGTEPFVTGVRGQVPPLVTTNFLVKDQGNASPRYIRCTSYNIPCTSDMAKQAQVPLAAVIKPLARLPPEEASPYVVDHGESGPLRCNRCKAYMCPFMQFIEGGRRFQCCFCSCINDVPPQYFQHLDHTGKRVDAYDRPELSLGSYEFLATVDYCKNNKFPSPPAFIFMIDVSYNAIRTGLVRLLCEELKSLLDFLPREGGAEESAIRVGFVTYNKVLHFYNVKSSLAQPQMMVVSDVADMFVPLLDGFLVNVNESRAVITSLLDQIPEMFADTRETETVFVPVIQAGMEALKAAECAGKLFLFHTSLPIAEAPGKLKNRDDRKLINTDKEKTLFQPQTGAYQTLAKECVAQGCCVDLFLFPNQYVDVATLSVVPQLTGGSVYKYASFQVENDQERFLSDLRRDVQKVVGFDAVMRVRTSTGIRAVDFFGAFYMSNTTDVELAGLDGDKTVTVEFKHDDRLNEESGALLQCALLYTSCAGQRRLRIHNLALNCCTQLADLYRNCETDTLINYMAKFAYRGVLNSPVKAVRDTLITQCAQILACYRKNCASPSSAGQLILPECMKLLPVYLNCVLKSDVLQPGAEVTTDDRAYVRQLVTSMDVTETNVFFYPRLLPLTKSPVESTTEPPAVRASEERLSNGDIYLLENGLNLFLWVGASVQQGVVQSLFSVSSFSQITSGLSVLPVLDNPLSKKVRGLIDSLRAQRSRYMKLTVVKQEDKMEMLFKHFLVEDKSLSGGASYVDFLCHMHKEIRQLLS
Experiment: co-IP; GFP-Trap agarose on lysates of HEK293T cells co-transfected with the GFP- or Venus-tagged protein and a Cx36 vector; IP buffer 200 mM NaCl, EDTA, 1% Tx-100, 50 mM TrisHCl pH 7.5; overnight at 4 °C; Cx36 detected by western blot

Q: For “Connexin 36 (Cx36), wild type (from UniProt O54851 1-321)”, which binding is on record?
A: Its binding is “no binding”.
